{
  "sequences": {"note": "Protein sequences, listed by entry. Tags and fused reporters are not part of them. Lines headed by an entry give the natural chain unless they say otherwise; changes in a name come on top.", "UniProt Q61735": "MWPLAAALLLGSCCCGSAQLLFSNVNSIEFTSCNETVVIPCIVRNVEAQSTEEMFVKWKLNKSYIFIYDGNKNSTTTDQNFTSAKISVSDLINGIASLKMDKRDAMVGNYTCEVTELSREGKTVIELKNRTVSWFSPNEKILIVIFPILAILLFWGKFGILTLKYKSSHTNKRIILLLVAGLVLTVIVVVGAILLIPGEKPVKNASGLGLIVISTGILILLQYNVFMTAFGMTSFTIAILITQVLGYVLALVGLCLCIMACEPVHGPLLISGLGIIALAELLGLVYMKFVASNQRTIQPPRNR"},
  "source": "paper PMC10036336",
  "biological_target": "CD47 protein (recombinant) (not stated (recombinant mouse and human CD47 bought)) (UniProt Q61735)",
  "assay": "far-Western, overlay or dot blot; CD47 protein adsorbed onto a nitrocellulose membrane; bacterial lysates of Fe-Bac-HlpA/CD47nb-BLPs after AMF treatment (310 kHz and 23.8 kA/m) added; bound CD47nb detected with an anti-Myc tag antibody; excess anti-CD47 antibodies as competitor, IgG as its negative control; only the target purified",
  "note": "No constants are given. Whether binding was seen depends on the method and setting. A result given as binding can be weak or reduced; the word gives no strength.",
  "data": [
    {"binder": "anti-CD47 nanobody (CD47nb) (VHH) VHH: QVQLVESGGGLVEPGGSLRLSCAASGIIFKINDMGWYRQAPGKRREWVAASTGGDEAIYRDSVKDRFTISRDAKNSVFLQMNSLKPEDTAVYYCTAVISTDRDGTEWRRYWGQGTQVTVSS", "values": [
      {"measurement": "binding", "value": "binds"}
    ]}
  ]
}
